Assay [1] concerns the target FGFR1 expressed on murine pre-B 300-19 cells (UniProt P11362). Description: flow cytometry on transfected 300-19 cells.
Assay [2] addresses FGFR4 expressed on murine pre-B 300-19 cells (UniProt P22455). Description: flow cytometry on transfected 300-19 cells.
For assay [3], the target named is FGFR2 (cell binding assays) (UniProt P21802). Briefly: ligand binding assay on intact cells.
In assay [4] the target is FGFR4 (cell binding assays) (UniProt P22455). Briefly: ligand binding assay on intact cells.

Protein sequences, listed by entry. Tags and fused reporters are not part of them. Residues count along the entry.
UniProt P11362, residues 22-822: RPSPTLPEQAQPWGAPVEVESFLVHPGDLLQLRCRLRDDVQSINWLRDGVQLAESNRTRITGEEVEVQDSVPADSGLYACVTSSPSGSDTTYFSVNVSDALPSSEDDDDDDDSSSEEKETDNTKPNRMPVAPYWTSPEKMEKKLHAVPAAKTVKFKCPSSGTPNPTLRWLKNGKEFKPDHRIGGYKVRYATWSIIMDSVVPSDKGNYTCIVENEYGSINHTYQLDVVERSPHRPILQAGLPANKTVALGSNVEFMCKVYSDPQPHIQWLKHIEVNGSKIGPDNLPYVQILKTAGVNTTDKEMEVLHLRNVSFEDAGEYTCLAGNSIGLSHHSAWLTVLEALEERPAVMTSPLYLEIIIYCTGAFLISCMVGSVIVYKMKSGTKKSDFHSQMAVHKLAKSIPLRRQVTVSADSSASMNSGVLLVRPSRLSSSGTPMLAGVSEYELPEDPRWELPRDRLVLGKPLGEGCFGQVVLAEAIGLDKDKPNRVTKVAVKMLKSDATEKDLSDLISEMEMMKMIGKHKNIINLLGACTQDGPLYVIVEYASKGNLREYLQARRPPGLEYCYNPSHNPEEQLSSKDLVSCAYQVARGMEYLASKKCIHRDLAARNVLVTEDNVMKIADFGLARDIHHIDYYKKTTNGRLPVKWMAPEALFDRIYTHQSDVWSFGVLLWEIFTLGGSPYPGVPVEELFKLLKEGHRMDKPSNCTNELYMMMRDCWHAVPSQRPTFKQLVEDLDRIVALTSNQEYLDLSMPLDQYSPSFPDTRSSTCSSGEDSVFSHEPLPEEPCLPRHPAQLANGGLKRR
UniProt P22455, residues 22-802: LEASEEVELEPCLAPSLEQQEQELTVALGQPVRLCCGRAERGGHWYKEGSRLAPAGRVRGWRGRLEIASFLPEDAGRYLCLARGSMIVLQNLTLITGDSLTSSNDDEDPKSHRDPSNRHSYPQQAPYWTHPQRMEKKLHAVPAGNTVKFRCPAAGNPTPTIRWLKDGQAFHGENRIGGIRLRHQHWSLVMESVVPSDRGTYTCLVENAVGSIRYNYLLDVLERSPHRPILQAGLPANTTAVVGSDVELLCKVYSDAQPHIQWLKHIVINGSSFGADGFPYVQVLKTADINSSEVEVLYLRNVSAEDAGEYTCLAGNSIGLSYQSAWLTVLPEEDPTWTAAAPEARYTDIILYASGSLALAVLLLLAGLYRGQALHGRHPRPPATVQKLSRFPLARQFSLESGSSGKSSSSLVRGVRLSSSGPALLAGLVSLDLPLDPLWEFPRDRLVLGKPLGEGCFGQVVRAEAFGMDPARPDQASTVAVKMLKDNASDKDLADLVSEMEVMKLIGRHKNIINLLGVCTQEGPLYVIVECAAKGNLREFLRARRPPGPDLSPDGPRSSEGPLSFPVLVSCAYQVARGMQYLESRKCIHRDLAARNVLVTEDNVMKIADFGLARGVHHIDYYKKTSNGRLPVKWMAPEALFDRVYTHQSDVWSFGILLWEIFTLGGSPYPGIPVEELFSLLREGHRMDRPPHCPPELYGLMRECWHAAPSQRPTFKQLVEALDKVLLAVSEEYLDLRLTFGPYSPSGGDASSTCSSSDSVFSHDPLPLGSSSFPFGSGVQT
UniProt P21802, residues 22-821: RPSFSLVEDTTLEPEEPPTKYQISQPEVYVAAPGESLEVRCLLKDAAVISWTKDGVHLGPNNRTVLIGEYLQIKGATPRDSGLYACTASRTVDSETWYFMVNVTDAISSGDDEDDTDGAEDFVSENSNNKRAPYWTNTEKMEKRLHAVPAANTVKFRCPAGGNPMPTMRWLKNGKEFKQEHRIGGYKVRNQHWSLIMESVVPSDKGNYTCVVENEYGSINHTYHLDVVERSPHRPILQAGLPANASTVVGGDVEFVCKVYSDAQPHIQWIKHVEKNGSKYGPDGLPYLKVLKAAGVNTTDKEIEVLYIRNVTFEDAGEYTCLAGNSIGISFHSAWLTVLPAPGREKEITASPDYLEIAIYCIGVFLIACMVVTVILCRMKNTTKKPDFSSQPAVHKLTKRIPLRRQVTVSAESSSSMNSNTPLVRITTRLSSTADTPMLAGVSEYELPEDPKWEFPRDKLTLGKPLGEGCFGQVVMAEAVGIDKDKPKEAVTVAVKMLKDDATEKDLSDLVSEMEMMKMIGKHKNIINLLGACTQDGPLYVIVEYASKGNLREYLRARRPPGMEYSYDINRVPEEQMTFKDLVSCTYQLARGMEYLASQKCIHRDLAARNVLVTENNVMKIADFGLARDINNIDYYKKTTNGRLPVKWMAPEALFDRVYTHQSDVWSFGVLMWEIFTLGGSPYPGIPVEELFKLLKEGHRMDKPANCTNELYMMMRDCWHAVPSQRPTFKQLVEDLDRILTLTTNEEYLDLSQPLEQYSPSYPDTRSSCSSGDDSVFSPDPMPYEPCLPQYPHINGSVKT
UniProt P09038, residues 143-288: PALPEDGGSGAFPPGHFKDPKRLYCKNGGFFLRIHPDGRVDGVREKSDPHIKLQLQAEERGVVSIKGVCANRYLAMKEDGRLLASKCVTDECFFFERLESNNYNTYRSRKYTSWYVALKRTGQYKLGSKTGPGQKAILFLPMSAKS

Results are given in words; binding and its absence hold for the method and conditions named. Some binding calls cover weakened binding; strength is not graded here.

As for “AlexaFluor488-labelled FGF2 (from UniProt P09038 143-288) (ligand)”, the binding entry in assay [1] and in assay [2] was “binds” in each case.

On to “FGF2 (from UniProt P09038 143-288) (ligand)”, for which the binding result in assay [3] and in assay [4] was “binds” throughout.

Source of the values: patent US20120094864A1.
